Assay results from publication PMC10746174.

Amino acid sequences for entries named in this document (tags omitted). A change or cut given only in a name is not applied to a line headed by its entry.
UniProt P33927: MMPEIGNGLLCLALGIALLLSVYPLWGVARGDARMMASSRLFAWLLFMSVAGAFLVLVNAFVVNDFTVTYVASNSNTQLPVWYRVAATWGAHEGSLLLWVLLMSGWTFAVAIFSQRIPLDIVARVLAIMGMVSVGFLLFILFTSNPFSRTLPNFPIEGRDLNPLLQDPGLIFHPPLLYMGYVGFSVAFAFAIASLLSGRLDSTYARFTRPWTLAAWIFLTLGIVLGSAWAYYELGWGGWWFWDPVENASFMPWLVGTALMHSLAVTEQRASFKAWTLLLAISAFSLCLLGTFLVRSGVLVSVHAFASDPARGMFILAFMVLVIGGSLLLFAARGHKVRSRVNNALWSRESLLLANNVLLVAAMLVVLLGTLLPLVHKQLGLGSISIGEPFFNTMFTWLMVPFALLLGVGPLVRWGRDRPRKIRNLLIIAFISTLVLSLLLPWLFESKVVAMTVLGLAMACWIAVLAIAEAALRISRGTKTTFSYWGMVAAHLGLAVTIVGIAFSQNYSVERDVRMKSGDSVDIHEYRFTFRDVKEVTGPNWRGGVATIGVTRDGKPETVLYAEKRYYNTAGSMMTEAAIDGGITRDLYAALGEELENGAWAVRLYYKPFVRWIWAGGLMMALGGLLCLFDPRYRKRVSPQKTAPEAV

Key:
Assay in all cases: pull-down; CcmF:6×His (C-terminal tag) co-expressed with the complete System I pathway in E. coli Δccm (RK103) and affinity purified; 5 µg of purified protein separated by SDS-PAGE; immunoblots with α-CcmH and α-CcmE, heme stain for holoCcmE
[1] = biological target: CcmF:6×His A248C (E. coli) (UniProt P33927)
[2] = biological target: CcmF:6×His E233C (E. coli) (UniProt P33927)
[3] = biological target: CcmF:6×His E246A (E. coli) (UniProt P33927)
[4] = biological target: CcmF:6×His F241C (E. coli) (UniProt P33927)
[5] = biological target: CcmF:6×His G235A (E. coli) (UniProt P33927)
[6] = biological target: CcmF:6×His G238C (E. coli) (UniProt P33927)
[7] = biological target: CcmF:6×His L234C (E. coli) (UniProt P33927)
[8] = biological target: CcmF:6×His N247A (E. coli) (UniProt P33927)
[9] = biological target: CcmF:6×His N247C (E. coli) (UniProt P33927)
[10] = biological target: CcmF:6×His W229A (E. coli) (UniProt P33927)
[11] = biological target: CcmF:6×His W236A (E. coli) (UniProt P33927)
[12] = biological target: CcmF:6×His W236C (E. coli) (UniProt P33927)
[13] = biological target: CcmF:6×His W239A (E. coli) (UniProt P33927)
[14] = biological target: CcmF:6×His W239C (E. coli) (UniProt P33927)
[15] = biological target: CcmF:6×His W242A (E. coli) (UniProt P33927)
[16] = biological target: CcmF:6×His W242C (E. coli) (UniProt P33927)
[17] = biological target: CcmF:6×His Y231A (E. coli) (UniProt P33927)
[18] = biological target: CcmF:6×His Y231C (E. coli) (UniProt P33927)

binding [1]: binds
binding [2]: binds
binding [3]: binds
binding [4]: binds
binding [5]: binds
binding [6]: binds
binding [7]: binds
binding [8]: binds
binding [9]: binds
binding [10]: binds
binding [11]: binds
binding [12]: binds
binding [13]: binds
binding [14]: binds
binding [15]: binds
binding [16]: binds
binding [17]: binds
binding [18]: binds
B1: CcmH (protein, UniProt P0ABM9 19-350)
chain: TIDVLQFKDEAQEQQFRQLTEELRCPKCQNNSIADSNSMIATDLRQKVYELMQEGKSKKEIVDYMVARYGNFVTYDPPLTPLTVLLWVLPVVAIGIGGWVIYARSRRRVRVVPEAFPEQSVPEGKRAGYVVYLPGIVVALIVAGVSYYQTGNYQQVKIWQQATAQAPALLDRALDPKADPLNEEEMSRLALGMRTQLQKNPGDIEGWIMLGRVGMALGNASIATDAYATAYRLDPKNSDAALGYAEALTRSSDPNDNRLGGELLRQLVRTDHSNIRVLSMYAFNAFEQQRFGEAVAAWEMMLKLLPANDTRRAVIERSIAQAMQHLSPQESK

No constants are given. Whether binding was seen depends on the method and setting. Binding seen in cells or lysates may run through a third protein. Binding calls can cover weak binding; strength is not graded here.
